The values below come from paper PMC5919683, “Transcription factor HAT1 is a substrate of SnRK2.3 kinase and negatively regulates ABA synthesis and signaling in Arabidopsis responding to drought” (PLoS Genetics, 2018).

No constants are given. Whether binding was seen depends on the method and setting. A result given as binding can be weak or reduced; the word gives no strength. Tags and fused reporters may be left off the sequences shown.

This assay addresses T1, GST-SnRK2.3 (Arabidopsis thaliana, UniProt Q39193 1-361).
T1 construct: SnRK2.3 of Arabidopsis; coding region inserted into pGEX-6P-1; also called GST-SnRK2s; SnRK2.3 fused with GST; source: recombinant (pGEX-6P-1 vector), purified with glutathione beads (Sigma)
T1 sequence (looked up): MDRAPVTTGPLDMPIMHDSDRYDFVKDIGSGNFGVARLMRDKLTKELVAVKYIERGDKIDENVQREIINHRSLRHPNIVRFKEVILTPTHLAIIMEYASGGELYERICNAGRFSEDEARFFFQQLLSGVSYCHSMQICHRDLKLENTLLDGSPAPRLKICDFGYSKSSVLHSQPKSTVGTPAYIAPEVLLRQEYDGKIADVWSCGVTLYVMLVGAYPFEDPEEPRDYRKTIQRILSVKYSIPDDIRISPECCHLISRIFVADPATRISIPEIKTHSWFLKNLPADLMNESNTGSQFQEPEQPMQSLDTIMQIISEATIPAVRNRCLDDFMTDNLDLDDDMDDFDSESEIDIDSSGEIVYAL
As to the kind of experiment: pull-down; GST pull-down: GST or GST-SnRK2s as bait, MBP-tagged HAT1 or its domains detected by western blotting with anti-MBP antibody; both purified. In general terms: Immunoblotting shows a protein as a band on a membrane.

Turning to “MBP-HAT1 N-terminal region (Arabidopsis thaliana) (domain or fragment)”, the binding entry was “binds”.
